# In PubChem BioAssay AID330 (DTP/NCI, 2004):
# The list does not hold the whole screen: it is rich in T/C values a quarter to a half above the control, in often repeated tests (any T/C) and in doses without a T/C. Further doses and runs are listed elsewhere. T/C is the treated group as % of the vehicle group. Some doses have a count of surviving animals in place of a T/C: the source files T/C as zero there, which appears to mark a toxic dose or a test without result, not a measured value. Some doses without a T/C left all or most animals alive at the check, yet need not have been tolerated: survival well below the control is almost never listed, so the zero probably covers shortened survival too. Counts of survivors are from the toxicity check (mostly the fifth day) where no day follows; animals may have died later. Schedules are NCI's codes, taken here to give the interval after Q, in days (D) or hours (H), and the number of doses after X. Some structures stand for samples that the source files as different forms (salt, stereo form or complex); doses refer to the form tested. Some entries were tested several times; their values stand side by side, smallest first. Signs of the kind (2×) stand for listed records that agree. For survival time, the PubChem record calls one and a half times the control and up active, and a quarter to a half above the control has no call in these data; cut-offs in other NCI protocols can differ. Some T/C values are followed by the survivors on the day toxicity was checked, most often the fifth; without a count, all were alive then.
# Test system: P388 leukemia ip, CD2F1 mice, survival T/C
# Test: NCI In Vivo Anticancer Drug Screen. Data for tumor model P388 Leukemia (intraperitoneal) in CD2F1 (CDF1) mice
# Conditions: T/C endpoint: median survival time, higher T/C = longer survival
# [1] = dose: 240.0 mg/kg/injection, schedule: Q01DX005 (ip), vehicle: saline with Tween-80
# [2] = dose: 60.0 mg/kg/injection, schedule: Q01DX005 (ip), vehicle: saline with Tween-80
# [3] = dose: 6.25 mg/kg/injection, schedule: Q01DX009 (ip), vehicle: saline with Tween-80
# [4] = dose: 12.5 mg/kg/injection, schedule: Q01DX009 (ip), vehicle: saline with Tween-80
# [5] = dose: 25.0 mg/kg/injection, schedule: Q01DX009 (ip), vehicle: saline with Tween-80
# [6] = dose: 50.0 mg/kg/injection, schedule: Q01DX009 (ip), vehicle: saline with Tween-80
# [7] = dose: 100.0 mg/kg/injection, schedule: Q01DX009 (ip), vehicle: saline with Tween-80
# [8] = dose: 200.0 mg/kg/injection, schedule: Q01DX009 (ip), vehicle: saline with Tween-80
# [9] = dose: 400.0 mg/kg/injection, schedule: Q01DX009 (ip), vehicle: saline with Tween-80
smiles,measurement,setting,value
O=[N+]([O-])c1ccccc1N=Nc1c(-c2ccccc2)nn(C(=S)S)c1-c1ccccc1,survivor count,"dose: 100.0 mg/kg/injection, schedule: Q04DX002 (ip), vehicle: Klucel (hydroxypropylcellulose) (HPC)",5 of 5
same,survivor count,"dose: 400.0 mg/kg/injection, schedule: Q04DX002 (ip), vehicle: Klucel (hydroxypropylcellulose) (HPC)",4 of 5
CN1C2=NC(=O)NC(=O)C23OC3c2ccccc21 (stereo not drawn) (tested in a mixture with another compound),survivor count,"dose: 200.0 mg/kg/injection, schedule: Q01DX005 (ip), vehicle: Klucel (hydroxypropylcellulose) (HPC)",0 of 6
C(=C\c1cc(-c2cc(/C=C/c3ccccc3)[nH]n2)n[nH]1)/c1ccccc1,survivor count,[1],3 of 6
CCCCCCCCCC[CH2][Sn]([CH2]CCCCCCCCCC)([CH2]CCCCCCCCCC)[CH2]CCCCCCCCCC,survivor count,"dose: 50.0 mg/kg/injection, schedule: Q01DX009 (ip), vehicle: saline",6 of 6
same,survivor count,"dose: 100.0 mg/kg/injection, schedule: Q01DX009 (ip), vehicle: saline",6 of 6
same,survivor count,"dose: 200.0 mg/kg/injection, schedule: Q01DX009 (ip), vehicle: saline",6 of 6
O=NNc1ccc([N+](=O)[O-])cc1,T/C,"dose: 12.5 mg/kg/injection, schedule: Q01DX009 (ip), vehicle: water",125 and 139 % of control [5 of 6 alive]
same,T/C,"dose: 25.0 mg/kg/injection, schedule: Q01DX009 (ip), vehicle: water",130 % of control
same,T/C,"dose: 50.0 mg/kg/injection, schedule: Q01DX009 (ip), vehicle: water",147 % of control
same,survivor count,"dose: 100.0 mg/kg/injection, schedule: Q01DX009 (ip), vehicle: water",2 of 6
same,survivor count,"dose: 200.0 mg/kg/injection, schedule: Q01DX009 (ip), vehicle: water",0 of 6
Clc1ccc(-c2nnc3ncccn23)cc1,survivor count,"dose: 400.0 mg/kg/injection, schedule: Q01DX001 (ip), vehicle: saline with Tween-80",0 of 6
Cn1nc(C(N)=O)c2c(N)ncnc21,survivor count,"dose: 15.0 mg/kg/injection, schedule: Q01DX005 (ip), vehicle: saline with Tween-80",3 of 6
same,survivor count,"dose: 30.0 mg/kg/injection, schedule: Q01DX005 (ip), vehicle: saline with Tween-80",2 of 6
same,survivor count,[2],5 of 6
same,survivor count,"dose: 120.0 mg/kg/injection, schedule: Q01DX005 (ip), vehicle: saline with Tween-80",4 of 6
same,survivor count,[1],0 of 6
CC(=O)OC(CC(=O)CC(O)(C(F)(F)F)C(F)(F)F)(C(F)(F)F)C(F)(F)F,survivor count,"dose: 25.0 mg/kg/injection, schedule: Q04DX003 (ip), vehicle: saline",6 of 6
O=C(Nc1cccc2c(OC(=O)C(Cl)Cl)c(N=Nc3ccc(S(=O)(=O)Nc4nccs4)cc3)cc(N=Nc3ccc(S(=O)(=O)Nc4nccs4)cc3)c12)C(Cl)Cl (tested in a mixture with another compound),T/C,"dose: 3.12 mg/kg/injection, schedule: Q01DX009 (ip), vehicle: saline with Tween-80",126 % of control
same,T/C,[3],133 % of control
same,T/C,[4],128 and 134 % of control
same,T/C,[5],136 % of control
same,survivor count,[5],6 of 6
same,survivor count,[6],"4 of 6, 5 of 6, 6 of 6 (2×)"
same,survivor count,[7],"1 of 6, 3 of 6, 5 of 6"
same,survivor count,[8],"0 of 6 (2×), 4 of 6, 6 of 6"
same,survivor count,[9],1 of 6 and 2 of 6
COc1ccc(C(=O)/C=C/c2c[nH]c3ccccc23)c(O)c1,survivor count,[2],6 of 6
CCOC1CCC2C(CCC(/C=C/c3ccc(O)c4ncccc34)N2C)C1 (stereo not drawn),T/C,[3],128 % of control
same,T/C,[4],129 % of control
same,T/C,[5],149 % of control (2×)
same,T/C,[6],142 % of control
same,survivor count,[6],6 of 6
same,survivor count,[7],0 of 6
CC(Cl)C(=O)N/N=C(/c1ccccc1)C(C)(C)C (stereo not drawn),survivor count,[8],3 of 6
NC1=NC(O)C=C1 (stereo not drawn),survivor count,"dose: 50.0 mg/kg/injection, schedule: Q01DX005 (ip), vehicle: saline",3 of 6
same,survivor count,"dose: 100.0 mg/kg/injection, schedule: Q01DX005 (ip), vehicle: saline",0 of 6
CN[C@H]1CCc2cc(OC)c(OC)c(OC)c2-c2ccc(OC)c(=O)cc21,T/C,"dose: 1.0 mg/kg/injection, schedule: Q01DX009 (ip), vehicle: water",130 % of control
same,T/C,"dose: 1.25 mg/kg/injection, schedule: Q01DX009 (ip), vehicle: water",126 % of control
same,T/C,"dose: 2.0 mg/kg/injection, schedule: Q01DX009 (ip), vehicle: water",128 % of control
same,T/C,"dose: 2.5 mg/kg/injection, schedule: Q01DX009 (ip), vehicle: water",131 % of control
same,T/C,"dose: 4.0 mg/kg/injection, schedule: Q01DX009 (ip), vehicle: saline",137 % of control
same,T/C,"dose: 4.0 mg/kg/injection, schedule: Q01DX009 (ip), vehicle: water",130 % of control
same,survivor count,"dose: 8.0 mg/kg/injection, schedule: Q01DX009 (ip), vehicle: saline with Tween-80",6 of 6
same,T/C,"dose: 8.0 mg/kg/injection, schedule: Q01DX009 (ip), vehicle: saline",149 % of control
same,survivor count,"dose: 16.0 mg/kg/injection, schedule: Q01DX009 (ip), vehicle: saline with Tween-80",5 of 6
same,survivor count,"dose: 32.0 mg/kg/injection, schedule: Q01DX009 (ip), vehicle: saline with Tween-80",1 of 6
same,survivor count,"dose: 64.0 mg/kg/injection, schedule: Q04DX003 (ip), vehicle: saline with Tween-80",5 of 6
same,survivor count,"dose: 128.0 mg/kg/injection, schedule: Q04DX003 (ip), vehicle: saline with Tween-80",2 of 6
CCCCCCC1NC1Cc1ccc(Cl)cc1 (stereo not drawn),survivor count,[7],0 of 6
same,survivor count,[8],0 of 6
same,survivor count,[9],0 of 6
